Measurements as given in the supplement of paper PMC4749390.
Structures can show the parent of a compound that is named as a salt. The list shows a part of the results. Single values are uncertain here, since repeats match poorly.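 JEG3 cells stably express tetracycline-inducible wild-type human LRH-1, a highly sumoylated nuclear receptor. SUMO-sensitive transcripts APOC3 and MUC1, increased by SUMO-deficient LRH-1 or UBC9 knockdown, were quantified by RT-qPCR relative to TBP and DMSO controls. Primary hits had robust Z-scores above +2 or below -2, before toxicity and TBP filtering.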

Each compound was assayed on JEG3 expressing hLRH-1 (assay: MUC1 transcript change (ddCt vs TBP and DMSO), Z-score over library; higher = higher MUC1 expression). Conditions: 10 µM; time (hr): 24.
`COc1cc2nc(N3CCN(C(=O)C4COc5ccccc5O4)CC3)nc(N)c2cc1OC` (configuration not stated) [doxazosin mesylate] was tested, and the “MUC1 transcript change (Z-score)” value was 0.439.
For `CCCCC(O)c1ccccc1` (configuration not stated) [fenipentol], the “MUC1 transcript change (Z-score)” value was 0.401.
`O=C(O)CCCCC1CCSS1` (configuration not stated) [thioctic acid] was tested, and the “MUC1 transcript change (Z-score)” value was 1.24.
In the case of `CCCC[C@@H](CC)COC(=O)c1ccccc1O` [octisalate], the “MUC1 transcript change (Z-score)” value is reported as 0.782.
With `Nc1ccc(S(=O)(=O)Nc2ccnn2-c2ccccc2)cc1` [Sulfaphenazole] the “MUC1 transcript change (Z-score)” value was -1.02.
For `CO[C@H]1C[C@H](O[C@H]2[C@H](C)O[C@@H](O[C@@H]3/C(C)=C/C[C@@H]4C[C@@H](C[C@]5(C=C[C@H](C)[C@@H](C6CCCCC6)O5)O4)OC(=O)[C@@H]4C=C(C)[C@@H](O)[C@H]5OC/C(=C\C=C\[C@@H]3C)[C@]54O)C[C@@H]2OC)O[C@@H](C)[C@@H]1O` [doramectin], the “MUC1 transcript change (Z-score)” value was 0.0164.
In the case of `CC(=O)/N=c1\sc(S(N)(=O)=O)nn1C` [methazolamide], the “MUC1 transcript change (Z-score)” value is reported as -0.0821.
With `CC(CCc1ccc(O)cc1)NCC(O)c1ccc(O)cc1` (configuration not stated) [ractopamine hydrochloride] the “MUC1 transcript change (Z-score)” value was -1.24.
With `CC(C)C(=O)Nc1ccc([N+](=O)[O-])c(C(F)(F)F)c1` [flutamide] the “MUC1 transcript change (Z-score)” value was 0.279.
For `CCOC(N)=O` [urethane], the “MUC1 transcript change (Z-score)” value was 0.357.
For `COc1cc2nc(N3CCN(C(=O)c4ccco4)CC3)nc(N)c2cc1OC` [prazosin hydrochloride], the “MUC1 transcript change (Z-score)” value was -0.491.
In the case of `Cc1ccc(/C(=C\CN2CCCC2)c2ccccn2)cc1` [Triprolidine hydrochloride], the “MUC1 transcript change (Z-score)” value is reported as 1.46.
In the case of `OCCN(CCO)c1nc(N2CCCCC2)c2nc(N(CCO)CCO)nc(N3CCCCC3)c2n1` [Dipyridamole], the “MUC1 transcript change (Z-score)” value is reported as -0.645.
In the case of `CC(=O)SCC(Cc1ccccc1)C(=O)NCC(=O)OCc1ccccc1` (configuration not stated) [racecadotril], the “MUC1 transcript change (Z-score)” value is reported as 0.664.
`N[C@@H](CC(=O)N1CCn2c(nnc2C(F)(F)F)C1)Cc1cc(F)c(F)cc1F` [sitagliptin monophosphate monohydrate] was tested, and the “MUC1 transcript change (Z-score)” value was 1.52.
In the case of `Oc1ccc2ccccc2c1` [beta-naphthol], the “MUC1 transcript change (Z-score)” value is reported as 0.256.
For `CC[C@@H]1OC(OC(c2c[nH]cn2)C(NC(=O)c2nc(C(CC(N)=O)NCC(N)C(N)=O)nc(N)c2C)C(=O)NC(C)C(O)C(C)C(=O)NC(C(=O)NCCc2nc(-c3nc(C(=O)NCCCCN=C(N)N)cs3)cs2)C(C)O)[C@@H](O[C@H]2O[C@H](CO)[C@@H](O)[C@H](OC(N)=O)[C@@H]2O)[C@@H](C)[C@@H]1C` (some centres not stated) [bleomycin (bleomycin b2 shown)], the “MUC1 transcript change (Z-score)” value was -1.06.
`C=C1CC[C@H](O)C/C1=C/C=C1\CCC[C@]2(C)[C@@H]([C@H](C)CCCC(C)C)CC[C@@H]12` [cholecalciferol] was tested, and the “MUC1 transcript change (Z-score)” value was 0.27.
In the case of `CCc1cn(C2OCC(O)C2CO)c(=O)[nH]c1=O` (configuration not stated) [edoxudine], the “MUC1 transcript change (Z-score)” value is reported as 0.356.
With `NNCCc1ccccc1` [phenelzine sulfate] the “MUC1 transcript change (Z-score)” value was 0.929.
In the case of `CC(=O)S[C@@H]1CC2=CC(=O)CC[C@]2(C)[C@H]2CC[C@@]3(C)[C@@H](CC[C@@]34CCC(=O)O4)[C@H]12` [spironolactone], the “MUC1 transcript change (Z-score)” value is reported as -0.269.
`CN(C)c1ccc(C(=C2C=CC(=[N+](C)C)C=C2)c2ccc(N(C)C)cc2)cc1` [gentian violet] was tested, and the “MUC1 transcript change (Z-score)” value was 0.076.
For `CN1CCC(=C2c3ccccc3CCc3sccc32)CC1` [pizotyline malate], the “MUC1 transcript change (Z-score)” value was -0.258.
For `O=C(OCC(O)CO)c1ccccc1Nc1ccnc2cc(Cl)ccc12` (configuration not stated) [glafenine], the “MUC1 transcript change (Z-score)” value was 0.524.
For `CN1CCN(CC(=O)N2c3ccccc3C(=O)Nc3cccnc32)CC1` [Pirenzepine dihydrochloride], the “MUC1 transcript change (Z-score)” value was 0.415.
In the case of `C=CC(N)CCC(=O)O` (racemic) [(±)-gamma-Vinyl GABA], the “MUC1 transcript change (Z-score)” value is reported as 0.84.
In the case of `O=C(c1ccc(OCCN2CCCCC2)cc1)c1c(-c2ccc(O)cc2)sc2cc(O)ccc12` [raloxifene hydrochloride], the “MUC1 transcript change (Z-score)” value is reported as 0.849.
`CN1CCN(CC/C=C2/c3ccccc3Sc3ccc(S(=O)(=O)N(C)C)cc32)CC1` [thiothixene] was tested, and the “MUC1 transcript change (Z-score)” value was 0.06.
`OC(Cn1cncn1)(Cn1cncn1)c1ccc(F)cc1F` [fluconazole] was tested, and the “MUC1 transcript change (Z-score)” value was 0.654.
With `O=C(O)CCNC(=O)c1ccc(N=Nc2ccc(O)c(C(=O)O)c2)cc1` [balsalazide disodium] the “MUC1 transcript change (Z-score)” value was -0.363.
For `NCCc1c[nH]cn1` [Histamine dihydrochloride], the “MUC1 transcript change (Z-score)” value was 0.0626.
In the case of `CCCOc1cc(N)ccc1C(=O)OCCN(CC)CC` [propoxycaine hydrochloride], the “MUC1 transcript change (Z-score)” value is reported as -0.642.
With `CC(=O)[C@@]1(O)CC[C@H]2[C@@H]3C=C(Cl)C4=CC(=O)[C@@H]5C[C@@H]5[C@]4(C)[C@H]3CC[C@@]21C` [cyproterone] the “MUC1 transcript change (Z-score)” value was -0.17.
With `CC[N+](C)(C)c1cccc(O)c1` [edrophonium chloride] the “MUC1 transcript change (Z-score)” value was -0.554.
With `OC1(c2ccc(Cl)c(C(F)(F)F)c2)CCN(CCCC(c2ccc(F)cc2)c2ccc(F)cc2)CC1` [penfluridol] the “MUC1 transcript change (Z-score)” value was 0.869.
For `CN1CCN(C(c2ccccc2)c2ccccc2)CC1` [cyclizine], the “MUC1 transcript change (Z-score)” value was -0.224.
With `CC(=O)OCC(=O)[C@@]1(O)CC[C@H]2[C@@H]3CCC4=CC(=O)C=C[C@]4(C)[C@@]3(Cl)[C@@H](Cl)C[C@@]21C` [dichlorisone acetate] the “MUC1 transcript change (Z-score)” value was -1.85.
For `FC(F)(F)C(Cl)Br` (configuration not stated) [halothane], the “MUC1 transcript change (Z-score)” value was 0.886.
With `CCCCN(CCCC)CCCOC(=O)c1ccc(N)cc1` [butacaine] the “MUC1 transcript change (Z-score)” value was 0.641.
In the case of `CC(=O)OCC(=O)[C@@]1(O)CC[C@H]2[C@@H]3CCC4=CC(=O)CC[C@]4(C)[C@@]3(F)[C@@H](O)C[C@@]21C` [fludrocortisone acetate], the “MUC1 transcript change (Z-score)” value is reported as -1.56.
In the case of `CC(O)CN(CCN(CC(C)O)CC(C)O)CC(C)O` (configuration not stated) [editol], the “MUC1 transcript change (Z-score)” value is reported as 0.68.
`O=C1CC[C@@H](C(=O)N2CSC[C@H]2C(=O)O)N1` [pidotimod] was tested, and the “MUC1 transcript change (Z-score)” value was 0.379.
For `CN(C)c1cnccn1` [ampyzine sulfate], the “MUC1 transcript change (Z-score)” value was 0.727.
`CCCCCCOC(=O)NC(=N)c1ccc(NCc2nc3cc(C(=O)N(CCC(=O)OCC)c4ccccn4)ccc3n2C)cc1` [dabigatran etexilate mesylate] was tested, and the “MUC1 transcript change (Z-score)” value was -0.672.
`C[C@]12CCC(=O)C=C1CCC1C2C(=O)C[C@@]2(C)C1CC[C@]2(O)C(=O)CO` (some centres not stated) [cortisone] was tested, and the “MUC1 transcript change (Z-score)” value was 0.586.
With `CC(=O)OCC(=O)NCCCOc1cccc(CN2CCCCC2)c1` [roxatidine acetate hydrochloride] the “MUC1 transcript change (Z-score)” value was -0.147.
For `O=C(CCCl)NCc1ccccc1` [beclamide], the “MUC1 transcript change (Z-score)” value was 0.669.
